Assay results published in PubChem BioAssay AID2551 (National Center for Advancing Translational Sciences (NCATS), 2010).
“And” between values parts separate entries of the source, which are not always exact repeats. Equal values may be shown once. Out of some 310,000 compounds screened, about 17,000 (5.5%) were called active. The inconclusive results got no clear call from the source; some entries with a clear call stand among them for comparison. The call rests on the fitted dose curve; in most records, active means well fitted inhibition curve with a large enough effect; inconclusive means small, poorly fitted or top-dose-only effect, or effect the other way; inactive means no such curve, though single readings can be large or run the other way. Potencies of inconclusive entries are doubtful fits and often do not repeat.

Sequences of proteins named here, by UniProt entry; tags and fusion partners are left off. A change or cut given only in a name is not applied to a line headed by its entry.
UniProt P51450: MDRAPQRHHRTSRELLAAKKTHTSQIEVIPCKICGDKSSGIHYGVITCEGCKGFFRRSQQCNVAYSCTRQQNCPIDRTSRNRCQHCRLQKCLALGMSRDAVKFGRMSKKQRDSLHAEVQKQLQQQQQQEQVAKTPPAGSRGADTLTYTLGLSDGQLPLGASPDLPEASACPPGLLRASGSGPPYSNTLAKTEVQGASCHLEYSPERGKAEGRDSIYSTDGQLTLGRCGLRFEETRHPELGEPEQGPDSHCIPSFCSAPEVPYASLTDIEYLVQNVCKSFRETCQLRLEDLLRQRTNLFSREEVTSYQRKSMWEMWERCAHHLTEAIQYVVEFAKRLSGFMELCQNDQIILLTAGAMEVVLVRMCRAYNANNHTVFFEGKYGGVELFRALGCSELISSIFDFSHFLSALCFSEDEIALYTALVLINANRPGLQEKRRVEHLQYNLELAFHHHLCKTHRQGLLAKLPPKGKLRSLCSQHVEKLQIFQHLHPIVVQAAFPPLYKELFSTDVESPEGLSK

Biological target: Nuclear receptor ROR-gamma (Mus musculus) (UniProt P51450)
Assay: qHTS for inhibitors of ROR gamma transcriptional activity; further: nearly all actives have a fitted effect of over 60% in size
Conditions: Drosophila S2 Gal4-RORgamma UAS-luciferase reporter, 20 h; series mostly up to 53.6 µM
Summary of the method: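 Compounds are pin-transferred onto Drosophila Schneider cells expressing a copper-inducible Gal4–ROR gamma transactivation domain fusion. After 1 hr, copper sulfate is added to 700 uM final; luciferase is read 20 hr later.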
Potency means the concentration at half of the fitted maximal effect.

SMILES | Potency
CCCOc1ccccc1C(=O)N(Cc1ccc(C)o1)C1CCS(=O)(=O)C1 (centres undefined) | inactive
CCCN1C(=O)COc2ccc(-c3n[nH]c(=O)c4ccccc34)cc21 | inconclusive: 17.8 µM [activator, single point]
CC(C)COc1ccc(CSCCNC(=S)Nc2ccccc2)cc1 | active: 1.12 µM
CC(/C=N/NC(=O)Cc1cccs1)=C\c1ccccc1 | inconclusive: 5.62 µM [activator, partial curve]
c1ccc(C(c2ccccc2)N2CCC3(CCNCC3)CC2)cc1 | inconclusive: 17.8 µM [inhibitor, single point]
COc1ccccc1Nc1ncccc1C(=O)O | inconclusive: 0.0447 µM [inhibitor, single point]
Oc1ccc(NC(=S)N=Nc2c(O)[nH]c3ccccc23)cc1 | inconclusive: 7.08 µM [inhibitor, partial curve, poor fit]
Cc1cccc(NC(=S)N2CCCCC2)c1 | inconclusive: 25.1 µM [inhibitor, single point]
Cc1ccc(CC(=O)Nc2ccc(OC(F)F)c(Cl)c2)cc1C | inconclusive: 12.6 µM [activator, single point]
O=C(c1ccccc1)c1cc2cc(Cl)ccc2[nH]1 | inactive
COc1ccc(C2C(=O)c3ccccc3C2=Nc2ccc(Br)cc2)cc1 (centres undefined) | inconclusive: 0.447 µM [inhibitor, single point]
CCOC(=O)CN(C(=O)Cn1nnc(-c2ccc(OC)cc2)n1)C(C(=O)NC1CCCC1)c1ccc(F)cc1 (centres undefined) | inconclusive: 7.94 µM [activator, partial curve]
CCCCc1cc(=O)oc2cc(OS(C)(=O)=O)ccc12 | inconclusive: 10 µM [activator, partial curve]
Cc1cccc(N2CCc3c2nc2ccc(Br)cc2c3N)c1 | inconclusive: 11.2 µM [activator, partial curve, poor fit]
COc1ccc2occ(C(=O)c3cccs3)c2c1 | inconclusive: 22.4 µM [activator, partial curve, poor fit]
O=C1NCCN(Cc2cccc(Oc3ccccc3)c2)C1CC(=O)N1CCCO1 (centres undefined) | inconclusive: 25.1 µM [inhibitor, single point]
CCCCOc1ccc(CSC(=N)N)cc1[N+](=O)[O-] | inconclusive: 35.5 µM [inhibitor, single point]
O=C(NC(=S)Nc1ccc(Cc2ccncc2)cc1)c1ccc(F)cc1 | active: 4.47 µM
CCCc1ccc(C(C)NC(=S)NCc2ccc(F)cc2)cc1 (centres undefined) | active: 0.631 µM
C#C[C@]1(OC(C)=O)CCC2C3CCC4=CC(=O)CCC4C3CC[C@]21C (some centres undefined) | inconclusive: 31.6 µM [activator, single point]
Cc1ccc(-c2c(C)sc(NC(=O)C3C4CCC(O4)C3C(=O)O)c2C(=O)OC(C)C)cc1 (centres undefined) | inactive
CS/C(Nc1cc(Cl)ccc1Cl)=C(/C#N)C(=O)c1ccco1 | active: 10 µM
Cc1ccc(NNC(=O)CCc2ccccc2)c(C)c1 | inactive
O=C(CCC1CCCCC1)NNC(=O)c1cnccn1 | inconclusive: 12.6 µM [inhibitor, single point]
COc1ccc(OC)c(S(=O)(=O)N2CCCC(C(=O)NCc3cccnc3)C2)c1 (centres undefined) | inconclusive: 15.8 µM [activator, partial curve]

SMILES | Potency
Cn1c(=O)c(-c2cccs2)nc2cnc(N3CCNCC3)nc21 | inactive
CC1(C)Cc2c(c(-c3ccco3)[nH]c(=O)c2C#N)CS1 | inactive
COc1ccccc1N(CC(=O)N/N=C(\C)c1ccccc1O)S(=O)(=O)c1ccc(C)cc1 | active: 0.562 µM
Cc1ccc(S(=O)(=O)N2CCOCC2)cc1C(=O)NC(=S)N1CC(C)CC(C)C1 (centres undefined) | active: 1.58 µM
Cc1c(C(=O)NCCSCc2ccco2)cccc1[N+](=O)[O-] | inconclusive: 35.5 µM [activator, single point]
Cc1onc(-c2ccccc2Cl)c1C(=O)N1CCCCCC1 | inactive
O=C(Nc1nccs1)c1ccc(Br)c(S(=O)(=O)N2CCOCC2)c1 | active: 12.6 µM
CC(Sc1n[nH]c(N)n1)C(=O)NC1CCCCC1C (centres undefined) | inactive
Cc1cc(C)c(C#N)c(SCc2nc3ccccc3[nH]2)n1 | inconclusive: 1.12 µM [activator, partial curve]
COc1ccc(C(=O)Nc2cc3c(cc2OC)CCCC3)cc1Br | inconclusive: 11.2 µM [activator, single point]
C/C(=N\Nc1nc2ccccc2[nH]1)c1cc2ccccc2o1 | active: 4.47 µM
Cc1cc(NC(=O)CCC(=O)N(CC(=O)NC2CCCC2)Cc2ccco2)no1 | inconclusive: 2.24 µM [inhibitor, partial curve]
O=C(Nc1ccc2oc(-c3ccncc3)nc2c1)c1ccc2c(c1)OCCO2 | inconclusive: 35.5 µM [inhibitor, single point]
CN1CCC(=O)N(C(CSc2ccc(Br)cc2)Cc2ccccc2)CC1 (centres undefined) | inactive
COc1ccc2[nH]c3c(NCCC4=CCCCC4)ncnc3c2c1 | inconclusive: 35.5 µM [inhibitor, single point]
COc1ccc(CNC(=O)/C=C/c2ccc(OCCCF)cc2)cc1OC | inactive
CC(C)Nc1nc(NC(C)C)nc(OCCOC(=O)c2ccccc2)n1 | inconclusive: 25.1 µM [activator, single point]
CCOc1ccc(NC(=O)C2CCCN(S(=O)(=O)c3ccc4[nH]c(=O)ccc4c3)C2)cc1 (centres undefined) | inconclusive: 35.5 µM [inhibitor, single point]
O=C(NCC1CC1)c1onc(CSc2nc3ccccc3[nH]2)c1C(=O)NCC1CC1 | inactive
COCCNc1nc(-n2nc(C)cc2C)nc2sc3c(c12)CCCC3 | active: 0.562 µM
CN(Cc1ccccc1)S(=O)(=O)c1ccc(NC(=S)NC(=O)C(C)(C)C)cc1 | active: 12.6 µM
O=C(Cc1noc2ccccc12)NNC(=S)Nc1ccc(Cl)cc1 | active: 11.2 µM
Nc1c(-c2cccc([N+](=O)[O-])c2)nc2ccccn12 | inactive
O=c1oc2ccccc2c(O)c1/C=C1\C=Nc2ccccc21 | inconclusive: 22.4 µM [inhibitor, single point]
COC(=O)c1ccccc1NC(=O)Cn1cc(Br)cn1 | inconclusive: 2.82 µM [inhibitor, partial curve]

SMILES | Potency
N#CC1=C(N)C(C#N)(C#N)[C@H](c2cccnc2)[C@H]2CN(C(=O)OCc3ccccc3)CC=C12 | inconclusive: 31.6 µM [inhibitor, single point]
COc1ccc(NC(=O)c2ccc(S(=O)(=O)N(C)C)cc2)cc1OC | inactive
COc1ccccc1/C=C/C=N/NC(=O)c1ccncc1 | active: 5.62 µM
Cc1ccc(C(=O)O/N=C(\N)c2cccc([N+](=O)[O-])c2)cc1 | inactive
COC(=O)COc1ccc(S(=O)(=O)Nc2cc(OC)ccc2OC)cc1 | active: 5.01 µM
CCn1cc(C(=O)O)c(=O)c2cnc(N3CCN(C(=S)NC(=O)c4ccc(Br)cc4)CC3)nc21 | active: 0.562 µM
CCc1cc2c(=O)n(-c3ccccc3)c(SCC(N)=O)nc2s1 | inconclusive: 31.6 µM [activator, single point]
CCN1CCN(c2ccc(NC(=O)c3ccc(C#N)cc3F)cc2Cl)CC1 | inactive
CS/C(N)=N/N=C/c1cc(Br)cc(Br)c1O | active: 0.631 µM
CCOc1cc2c3c(c1)C1(C(=O)N3C(C)(C)C=C2C)C(C#N)=C(N)Oc2cc(O)ccc21 (centres undefined) | inconclusive: 31.6 µM [activator, single point]
COc1ccccc1CC(Cc1nc2ccccc2[nH]1)c1nc2ccccc2[nH]1 (centres undefined) | inconclusive: 12.6 µM [inhibitor, partial curve] and inconclusive: 2.82 µM [inhibitor, full curve, poor fit]
Nc1cc(Cl)c(N)cc1Cl | inconclusive: 2.82 µM [inhibitor, single point]
CCn1c(SCC(=O)NCC2CCCO2)nnc1-c1ccc(Cl)cc1 (centres undefined) | inactive
Cc1ccc(S(=O)(=O)CCC(=O)c2cccc([N+](=O)[O-])c2)cc1 | active: 3.98 µM
Cc1ccccc1C(=O)NNc1ccc([N+](=O)[O-])cc1 | inactive
COc1ccc(-c2nsc(SCC(=O)Nc3ccc4c(c3)OCO4)n2)cc1 | inconclusive: 8.91 µM [inhibitor, partial curve]
COCC1CCCN(C(=O)c2cc(COc3cncc(Cl)c3)on2)C1 (centres undefined) | inconclusive: 11.2 µM [activator, partial curve]
COc1ccc(NC(=O)C(Cl)=C(Cl)Cl)cn1 | inactive
CC(=O)Nc1ccc(Oc2cc(C#N)c(C#N)cc2N2CCCCCC2)cc1 | inconclusive: 15.8 µM [inhibitor, single point]
C=CCn1c(SCC(=O)c2ccc(Cl)cc2)nnc1-c1ccc2c(c1)OCO2 | inconclusive: 35.5 µM [inhibitor, single point]
COc1ccc(S(=O)(=O)N2CCOCC2)cc1NC(=O)c1cccc2c(=O)c(C)c(-c3ccccc3)oc12 | inconclusive: 0.0056 µM [activator, full curve, poor fit]
Oc1cc2c(cc1O)[C@H](c1ccccc1)CNCC2 | inconclusive: 35.5 µM [inhibitor, single point]
COC(=O)CC1Oc2cc3oc4c5ccccc5oc(=O)c4c3cc2O1 (centres undefined) | inconclusive: 0.794 µM [inhibitor, full curve, poor fit]
CCOC(=O)Cc1csc(NC(=O)Nc2cccs2)n1 | inconclusive: 35.5 µM [activator, single point]

A stretch taken from the entries so far:
SMILES | Potency
COc1ccc(S(=O)(=O)N2CCOCC2)cc1NC(=O)c1cccc2c(=O)c(C)c(-c3ccccc3)oc12 | inconclusive: 0.0056 µM [activator, full curve, poor fit]
Oc1cc2c(cc1O)[C@H](c1ccccc1)CNCC2 | inconclusive: 35.5 µM [inhibitor, single point]
COC(=O)CC1Oc2cc3oc4c5ccccc5oc(=O)c4c3cc2O1 (centres undefined) | inconclusive: 0.794 µM [inhibitor, full curve, poor fit]
